Test results reported in publication PMC7808939.
No constants are given. Whether binding was seen depends on the method and setting. Binding seen in cells or lysates may run through a third protein. Binding calls can cover weak binding; strength is not graded here. Sequences can lack the tags named with a protein.

Target: T1, Flag-D3 (NIH3T3) (UniProt P30282)
T1 sequence: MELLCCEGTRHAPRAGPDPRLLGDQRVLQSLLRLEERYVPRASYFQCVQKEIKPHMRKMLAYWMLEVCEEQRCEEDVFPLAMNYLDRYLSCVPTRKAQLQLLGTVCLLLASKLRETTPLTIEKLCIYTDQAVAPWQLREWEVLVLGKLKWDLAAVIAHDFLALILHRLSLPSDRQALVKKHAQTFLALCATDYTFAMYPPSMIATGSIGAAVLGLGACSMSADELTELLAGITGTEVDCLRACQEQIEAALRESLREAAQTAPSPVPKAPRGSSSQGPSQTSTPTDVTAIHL
Experiment: co-IP; NIH3T3 co-transfected with HA-GFP or HA-Fbxl8 (wild type or deletion mutants) and Flag-D3, MG132 (20 μM) for 4 h; anti-Flag beads

In the case of “HA-Fbxl8ΔC3 (NIH3T3) (domain or fragment)”, the binding is reported as “binds”.
